PubChem BioAssay AID1159508, Drosophila RNAi Screening Center – 2015

Purpose: 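How silencing genes for RNA-binding proteins changes cellular ATP without other treatment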
Cells: Drosophila S2R+ cells
Reagents: long dsRNA against Drosophila genes
Timing: 5 days
Measurement: 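Total ATP per well measured by luciferase luminescence after 5 days, expressed as z-scores for each replicate and as their average across up to three replicates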
Direction: mean ATP z-score and ATP z-score: higher = more total ATP luminescence
Call rule: In these data the active calls have mean ATP z-score at about -2 or lower, or at about 2 or higher
Calls: active = strong ATP change (up or down); inactive = no strong ATP change
Shown is a random part of 812 deposited reagents. Over the whole deposit, 18 (2.2%) got an active call. 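Calls include both increased and decreased ATP; roughly one in four reagents has no third replicate value.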 The numbers tell different reagents against one gene apart. Names joined by + are all predicted targets of the reagent. Not all columns of the deposit are shown. Not given: the amount of reagent.

Depletion of RluA-1 #1 resulted in: mean ATP z-score -0.343; ATP z-score, replicate 1 = -0.947; inactive.
Depletion of RluA-1 #2 came out at: mean ATP z-score 0.312; ATP z-score, replicate 1 = 0.0986; inactive.
qkr58E-3 #1 gave mean ATP z-score -0.354; ATP z-score, replicate 1 = -0.527; inactive.
qkr58E-3 #2 scored mean ATP z-score -0.222; ATP z-score, replicate 1 = -0.45; inactive.
With knock-down of Snp + CG44249 #1, the screen gave mean ATP z-score 0.409; ATP z-score, replicate 1 = 0.0984; inactive.
Knock-down of Snp + CG44249 #2 came out at: mean ATP z-score 0.26; ATP z-score, replicate 1 = -0.00971; inactive.
Silencing of Rnp4F #1 gave: mean ATP z-score -0.26; ATP z-score, replicate 1 = -0.326; inactive.
Silencing of Rnp4F #2 gave: mean ATP z-score -0.59; ATP z-score, replicate 1 = -0.977; inactive.
With knock-down of HnRNP-K #1 the results were mean ATP z-score -0.482; ATP z-score, replicate 1 = -0.688; inactive.
Depletion of HnRNP-K #2 came out at: mean ATP z-score 0.62; ATP z-score, replicate 1 = 0.328; inactive.
ncm #1 scored mean ATP z-score -1.06; ATP z-score, replicate 1 = -1.13; inactive.
Depletion of ncm #2 gave: mean ATP z-score -0.267; ATP z-score, replicate 1 = -0.287; inactive.
Silencing of eEF2 #1 resulted in: mean ATP z-score 0.7; ATP z-score, replicate 1 = 0.627; inactive.
Silencing of eEF2 #2 came out at: mean ATP z-score 2.41; ATP z-score, replicate 1 = 2.14; active.
ais #1 showed mean ATP z-score -0.442; ATP z-score, replicate 1 = -0.475; inactive.
ais #2 scored mean ATP z-score 0.715; ATP z-score, replicate 1 = 0.512; inactive.
With knock-down of Atx-1 #1 the results were mean ATP z-score 0.903; ATP z-score, replicate 1 = 0.531; inactive.
Against Atx-1 #2, the values are mean ATP z-score -0.195; ATP z-score, replicate 1 = -0.819; inactive.
With knock-down of Caper #1, the screen gave mean ATP z-score 0.766; ATP z-score, replicate 1 = 0.645; inactive.
Caper #2 showed mean ATP z-score -0.68; ATP z-score, replicate 1 = -0.783; inactive.
After knock-down of bcd #1, the record shows mean ATP z-score 1.29; ATP z-score, replicate 1 = 0.0304; inactive.
With knock-down of bcd #2, the record shows mean ATP z-score 0.766; ATP z-score, replicate 1 = 0.552; inactive.
Against Hel25E #1, the values are mean ATP z-score 1.1; ATP z-score, replicate 1 = 1.02; inactive.
Hel25E #2 gave mean ATP z-score 0.631; ATP z-score, replicate 1 = 0.5; inactive.
For PNPase #1 the deposit lists mean ATP z-score -0.297; ATP z-score, replicate 1 = -0.394; inactive.
For PNPase #2 the deposit lists mean ATP z-score 0.511; ATP z-score, replicate 1 = 0.0914; inactive.
CG18596 #1 gave mean ATP z-score -0.308; ATP z-score, replicate 1 = -0.301; inactive.
Knock-down of CG18596 #2 came out at: mean ATP z-score 0.0706; ATP z-score, replicate 1 = -0.498; inactive.
Silencing of CG10803 #1 gave: mean ATP z-score 0.272; ATP z-score, replicate 1 = 0.196; inactive.
Against CG10803 #2, the entry reads mean ATP z-score -0.735; ATP z-score, replicate 1 = -0.801; inactive.
Against glo #1, the values are mean ATP z-score 0.785; ATP z-score, replicate 1 = 0.605; inactive.
Silencing of glo #2 resulted in: mean ATP z-score 1.43; ATP z-score, replicate 1 = 0.95; inactive.
With knock-down of Upf2 #1, the record shows mean ATP z-score 0.505; ATP z-score, replicate 1 = 0.115; inactive.
After knock-down of Upf2 #2, the record shows mean ATP z-score 0.639; ATP z-score, replicate 1 = 0.314; inactive.
Rrp45 #1 scored mean ATP z-score -0.583; ATP z-score, replicate 1 = -0.599; inactive.
Rrp45 #2 scored mean ATP z-score -1.02; ATP z-score, replicate 1 = -1.13; inactive.
For Srp72 #1 the deposit lists mean ATP z-score 1.09; ATP z-score, replicate 1 = 0.928; inactive.
For Srp72 #2, the entry reads mean ATP z-score 0.0327; ATP z-score, replicate 1 = -0.0158; inactive.
After knock-down of CG11454 #1 the results were mean ATP z-score -0.604; ATP z-score, replicate 1 = -0.8; inactive.
Against CG11454 #2 the deposit lists mean ATP z-score 0.264; ATP z-score, replicate 1 = 0.14; inactive.
After knock-down of CG4866 #1 the results were mean ATP z-score -0.223; ATP z-score, replicate 1 = -0.39; inactive.
With knock-down of CG4866 #2, the record shows mean ATP z-score 1.24; ATP z-score, replicate 1 = 0.841; inactive.
